No constants are given. Whether binding was seen depends on the method and setting. In cells and extracts the contact can be indirect. Some binding calls cover weakened binding; strength is not graded here.
Key:
[1] = biological target: Argonaute 2 (human (endogenous in U937, U1, J1.1, HEK293T)) (UniProt Q9UKV8); assay: co-IP; lysates of U937/Nef-EYFP or U937/EYFP cells; IP with anti-Nef, anti-Ago2 or anti-GW182 overnight at 4°C, Protein A-agarose, five washes with lysis buffer, western blot
[2] = biological target: GW182 (human (endogenous in U937)) (UniProt Q8NDV7); assay: as above

The chains behind the UniProt entries cited, without tags or fusion partners.
UniProt Q9UKV8: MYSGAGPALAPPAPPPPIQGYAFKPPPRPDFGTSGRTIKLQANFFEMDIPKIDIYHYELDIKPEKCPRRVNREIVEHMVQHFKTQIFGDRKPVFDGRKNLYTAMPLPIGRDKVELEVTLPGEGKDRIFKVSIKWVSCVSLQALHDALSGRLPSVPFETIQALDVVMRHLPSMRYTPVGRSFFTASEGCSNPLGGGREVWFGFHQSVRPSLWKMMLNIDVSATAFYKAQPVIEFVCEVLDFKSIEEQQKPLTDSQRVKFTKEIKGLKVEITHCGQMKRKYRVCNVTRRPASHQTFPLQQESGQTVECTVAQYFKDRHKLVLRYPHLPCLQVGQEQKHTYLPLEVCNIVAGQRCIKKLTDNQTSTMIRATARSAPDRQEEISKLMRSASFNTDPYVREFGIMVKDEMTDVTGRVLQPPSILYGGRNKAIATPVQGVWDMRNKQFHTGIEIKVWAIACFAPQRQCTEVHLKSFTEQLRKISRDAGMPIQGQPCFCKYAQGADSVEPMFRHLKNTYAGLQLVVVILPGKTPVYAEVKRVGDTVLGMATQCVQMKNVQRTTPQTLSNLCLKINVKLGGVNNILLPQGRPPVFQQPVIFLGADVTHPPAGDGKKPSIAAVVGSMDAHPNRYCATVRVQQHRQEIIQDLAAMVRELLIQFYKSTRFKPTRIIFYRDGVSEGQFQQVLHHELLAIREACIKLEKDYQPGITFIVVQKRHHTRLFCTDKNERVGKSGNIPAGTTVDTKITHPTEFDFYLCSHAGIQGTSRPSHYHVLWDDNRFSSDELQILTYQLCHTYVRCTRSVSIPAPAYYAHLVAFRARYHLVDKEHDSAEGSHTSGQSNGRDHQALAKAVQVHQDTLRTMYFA
UniProt Q8NDV7: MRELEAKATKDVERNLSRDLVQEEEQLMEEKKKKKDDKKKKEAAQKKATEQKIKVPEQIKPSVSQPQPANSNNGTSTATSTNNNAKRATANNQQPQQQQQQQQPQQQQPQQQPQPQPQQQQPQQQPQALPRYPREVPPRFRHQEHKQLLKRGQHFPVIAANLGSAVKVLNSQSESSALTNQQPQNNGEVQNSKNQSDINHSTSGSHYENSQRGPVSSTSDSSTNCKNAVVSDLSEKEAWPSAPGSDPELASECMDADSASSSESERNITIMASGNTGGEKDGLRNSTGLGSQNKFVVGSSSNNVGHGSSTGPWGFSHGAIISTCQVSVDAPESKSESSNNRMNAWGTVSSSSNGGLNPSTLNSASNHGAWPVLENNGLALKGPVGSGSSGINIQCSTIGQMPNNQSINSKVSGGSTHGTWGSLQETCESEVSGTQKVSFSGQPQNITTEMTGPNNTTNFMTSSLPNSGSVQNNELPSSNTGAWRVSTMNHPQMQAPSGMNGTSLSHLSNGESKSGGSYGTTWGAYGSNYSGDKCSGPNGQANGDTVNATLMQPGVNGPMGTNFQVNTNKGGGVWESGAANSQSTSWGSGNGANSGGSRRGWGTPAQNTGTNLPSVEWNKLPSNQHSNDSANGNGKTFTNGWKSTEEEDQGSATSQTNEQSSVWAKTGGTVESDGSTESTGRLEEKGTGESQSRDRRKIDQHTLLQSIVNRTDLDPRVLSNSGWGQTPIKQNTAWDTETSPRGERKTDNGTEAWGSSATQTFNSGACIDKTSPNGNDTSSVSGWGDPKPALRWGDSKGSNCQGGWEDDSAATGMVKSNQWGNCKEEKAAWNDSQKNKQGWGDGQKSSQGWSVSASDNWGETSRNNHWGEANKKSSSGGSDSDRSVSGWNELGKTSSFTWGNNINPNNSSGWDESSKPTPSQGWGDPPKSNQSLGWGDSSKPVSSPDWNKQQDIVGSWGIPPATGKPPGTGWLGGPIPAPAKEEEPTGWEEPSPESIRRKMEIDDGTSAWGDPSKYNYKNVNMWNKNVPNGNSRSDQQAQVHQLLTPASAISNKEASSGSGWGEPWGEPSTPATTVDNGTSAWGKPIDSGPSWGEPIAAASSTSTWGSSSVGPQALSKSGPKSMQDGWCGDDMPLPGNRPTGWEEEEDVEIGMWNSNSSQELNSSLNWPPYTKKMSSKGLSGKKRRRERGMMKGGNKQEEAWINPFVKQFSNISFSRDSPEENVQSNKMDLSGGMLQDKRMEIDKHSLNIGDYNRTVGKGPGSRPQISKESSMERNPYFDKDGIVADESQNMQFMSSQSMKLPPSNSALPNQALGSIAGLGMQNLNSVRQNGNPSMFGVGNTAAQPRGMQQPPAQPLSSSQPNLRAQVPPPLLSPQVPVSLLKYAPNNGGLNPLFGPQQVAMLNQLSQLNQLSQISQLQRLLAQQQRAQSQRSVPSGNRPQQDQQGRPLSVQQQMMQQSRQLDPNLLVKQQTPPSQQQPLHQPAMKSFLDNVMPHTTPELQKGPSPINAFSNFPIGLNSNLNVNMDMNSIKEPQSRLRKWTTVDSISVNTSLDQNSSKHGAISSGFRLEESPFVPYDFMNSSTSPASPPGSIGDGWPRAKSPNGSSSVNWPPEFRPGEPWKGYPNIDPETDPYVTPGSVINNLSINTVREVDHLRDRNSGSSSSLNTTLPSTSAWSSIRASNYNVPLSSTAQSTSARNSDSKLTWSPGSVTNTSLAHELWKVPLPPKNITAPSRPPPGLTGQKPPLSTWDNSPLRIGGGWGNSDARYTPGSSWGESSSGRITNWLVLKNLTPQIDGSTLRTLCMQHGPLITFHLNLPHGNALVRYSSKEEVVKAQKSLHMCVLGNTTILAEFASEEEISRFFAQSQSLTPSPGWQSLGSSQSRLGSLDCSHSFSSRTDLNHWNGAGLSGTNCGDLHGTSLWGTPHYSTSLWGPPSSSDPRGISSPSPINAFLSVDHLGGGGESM

Substance	binding [1]	binding [2]
GW182 (from UniProt Q8NDV7 1-1962)	binds	
Argonaute 2 (from UniProt Q9UKV8 1-859)		binds

From publication PMC3762824
